Structures are written as SMILES. The list shows a part of the results. The main result of the screen is listed elsewhere. These columns were measured beside it and carry no call. Compounds called inactive in the main read-out are mostly missing here. Words in brackets tell the shape of the fitted curve; partial curves, single points and poor fits give uncertain potencies.

The assay can be described thus: qHTS Assay for Lipid Storage Modulators in Drosophila S3 Cells.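 On cell number change: cells counted by Cell Tracker Red CMTPX staining in the red channel.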 As to conditions: BODIPY lipid droplet fluorescence, 18-24 h; for cell number change: measured here: cell count max response, cells fed with added oleic acid. In a few lines:
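Laser-scanning cytometry quantifies lipid droplet accumulation (500–530 nm total intensity; droplet/cell object ratio) in oleic acid-fed (400 uM added) Drosophila S3 cells treated with a concentration series. 20 uM Triacsin C defined 100% inhibition.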
Background: qHTS replaces the single test concentration by a dilution series.

Setting [1] is: measured here: cell number channel AC50, cells fed with added oleic acid.
Where [2] appears, read: measured here: lipid fluorescence (Fed channel) AC50, cells fed with added oleic acid.

With `COc1ccc(NC(=O)/C(C#N)=C/c2c(C)nn(-c3ccc(F)cc3)c2Cl)cc1OC`, the cell number change is -32.2%. Besides, the half-maximal activity concentration (AC50) (usually the concentration at which the activity in the assay is half-maximal) under setting [1] is 32.6 µM [falling, single point]. The AC50 under setting [2] was 29.1 µM [falling, single point].

For `COc1cccc(CN(C)CC(O)COc2cc(Cl)ccc2Cl)c1` (stereo not drawn), the cell number change is -36.6%. Also, the concentration at half-maximal activity (AC50) under setting [1] was 29.1 µM [falling, single point]. The AC50 under setting [2] is 1.3 µM [rising, full curve, poor fit].

In the case of `O=C1N(Cc2ccccc2)c2ccc(Cl)cc2C12OCCO2`, the cell number change was 5.44%. Under setting [2], the AC50 is 0.461 µM [rising, partial curve, poor fit].

Regarding `CS(=O)(=O)c1ccc2nc(NC3(C(F)(F)F)N=C4SCCN4C3=O)sc2c1` (stereo not drawn), the AC50 under setting [2] was 0.00411 µM [rising, full curve, poor fit].

On to `COc1ccc(C(=O)NNC2=Nc3cccc4cccc2c34)cc1`, for which the cell number change is 35.4%. The concentration at half-maximal activity (AC50) under setting [1] was 25.9 µM [rising, single point]. For the same molecule, under setting [2], the AC50 is 4.11 µM [rising, single point].

In the case of `COc1ccc(Cl)cc1NC(=O)CSc1nc2sccc2c(=O)[nH]1`, the cell number change is -7.75%. Besides, under setting [2], the AC50 is 4.11 µM [rising, single point].

`CCOC(=O)c1cc(-c2ccccc2)sc1NC(=O)c1cc(OC)c(OC)c(OC)c1`: the cell number change came out at 10.5%. Under setting [2], the AC50 was 0.517 µM [rising, single point].

`O=C(/C=C/c1ccco1)Nc1cc(Cl)ccc1C(=O)O`: the cell number change is 0.822%. Under setting [2], the AC50 is 6.51 µM [rising, single point].

Take `CSc1nc2ccc(S(=O)(=O)N3CCOCC3)cc2s1`: the half-maximal activity concentration (AC50) was 0.517 µM [falling, full curve] under setting [1] and 0.291 µM [falling, partial curve, poor fit] under setting [2].

For `O=C(N/C(=C\c1ccc(Br)cc1)C(=O)N1CCOCC1)c1ccc([N+](=O)[O-])cc1`, the cell number change came to 2.86%. The AC50 under setting [2] was 6.51 µM [falling, single point].

`CCc1cc(-c2nc(N)ncc2-c2ccc(Br)cc2)c(O)cc1OC`: the cell number change was -38.8%. Further, the half-maximal activity concentration (AC50) under setting [1] is 18.4 µM [falling, single point]. The AC50 under setting [2] was 29.1 µM [falling, single point].

Regarding `CCCc1cc(C(=O)N2CCCC(N3CCN(c4ccccc4F)CC3)C2)n(C)n1` (stereo not drawn), the cell number change came to 10.5%. For the same molecule, the concentration at half-maximal activity (AC50) under setting [2] was 29.1 µM [falling, single point].

As for `CCc1ccc(NC(=O)c2ccc(Cn3cc([N+](=O)[O-])cn3)cc2)cc1`, the cell number change stood at 9.53%. In addition, under setting [2], the AC50 was 0.0291 µM [rising, full curve, poor fit].

As for `CN1CCN(/C=N/c2c(C#N)cnn2Cc2ccccc2)CC1`, the cell number change is -15.5%.

As for `COc1nc(-c2cccc([N+](=O)[O-])c2)nc2ccccc12`, the cell number change is 26.2%. For the same molecule, under setting [1], the AC50 was 0.082 µM [rising, full curve, poor fit].

Consider `COc1cccc(NC(=S)NNC(=O)c2ccccc2OC(F)F)c1`, for which the cell number change is 69.8%. Under setting [1], the concentration at half-maximal activity (AC50) was 29.1 µM [rising, single point].

In the case of `Cc1ccc2c(NC(=O)c3ccc(Br)o3)cccc2n1`, the cell number change was 5.6%.

As for `CC(C)(C)C(=O)NCCCc1ccccc1`, the cell number change was -17.2%.

For the molecule `O=C(O)c1ccccc1N(Cc1ccccc1)C(=O)CO/N=C/c1ccccc1`, the cell number change came out at 10.9%. Besides, the half-maximal activity concentration (AC50) under setting [1] was 6.51 µM [rising, single point]. The concentration at half-maximal activity (AC50) under setting [2] was 0.231 µM [falling, full curve, poor fit].

Turning to `CC1CN(C(=S)SCC(=O)c2ccccc2)CC(C)O1` (stereo not drawn), the cell number change is -27.5%. Further, under setting [2], the AC50 is 0.259 µM [falling, full curve, poor fit].

As for `Cc1ccc(S(=O)(=O)N[C@H](C(=O)OCn2nnc3ccccc3c2=O)C(C)C)cc1`, the cell number change was -88.8%. Besides, under setting [1], the AC50 is 29.1 µM [falling, single point].

Consider `Nc1nnnn1/N=C/c1ccccc1OCc1ccc(Cl)cc1Cl`, for which the cell number change is -23.6%. Also, under setting [2], the AC50 was 4.11 µM [rising, partial curve].

`CCn1c(SCC(=O)Nc2ccc(C)cc2)nc(O)cc1=O`: the cell number change was -18.4%. For the same molecule, under setting [2], the half-maximal activity concentration (AC50) is 1.03 µM [falling, full curve].

For `Cc1cn(C2CC(OC(=O)C(C)C)C(CO)O2)c(=O)[nH]c1=O` (stereo not drawn), the cell number change amounted to 32.9%. Besides, under setting [1], the half-maximal activity concentration (AC50) is 16.4 µM [rising, single point]. The concentration at half-maximal activity (AC50) under setting [2] is 0.13 µM [rising, full curve, poor fit].

As to `COCCCNC(=O)/C(C#N)=c1\s/c(=C\c2ccccc2OC(F)F)c(=O)n1CCCOC`, the cell number change was 36.2%. Further, the AC50 under setting [2] is 6.51 µM [rising, single point].

In the case of `Cc1ccc(S(=O)(=O)N(C)C2(C)CCS(=O)(=O)C2)cc1` (stereo not drawn), the cell number change is -33.9%. Under setting [1], the AC50 is 32.6 µM [falling, single point]. Also, under setting [2], the AC50 is 29.1 µM [falling, single point].

Turning to `CCn1nc(NC(=O)c2cccs2)c2cc3ccccc3nc21`, the cell number change is 61.1%. Also, the AC50 under setting [2] is 29.1 µM [rising, partial curve].

For the molecule `OCC1(CCOc2ccccc2)CCN(Cc2cn[nH]c2-c2ccccc2)CC1`, the cell number change amounted to 14%.

Consider `COc1ccc(C)cc1NC(=O)COC(=O)C1CC1`, for which the cell number change was 1.47%. In addition, under setting [1], the AC50 is 0.146 µM [falling, full curve]. For the same molecule, the AC50 under setting [2] was 0.291 µM [falling, partial curve, poor fit].

For `COc1ccc(C(NC(=O)C2CCCCC2)c2c(O)ccc3ccccc23)cc1` (stereo not drawn), the cell number change is -13%. Besides, under setting [2], the concentration at half-maximal activity (AC50) is 0.731 µM [falling, full curve, poor fit].

As for `O=C(NCCC1CCCCN1S(=O)(=O)c1cccs1)C(=O)Nc1ccc(F)cc1` (stereo not drawn), the cell number change is -30.7%. Further, under setting [1], the concentration at half-maximal activity (AC50) was 10.3 µM [falling, partial curve].

For the molecule `C=CCn1c(SCCOc2ccc(OC)cc2)nnc1C(CO)NC(=O)c1ccc(OC)cc1` (stereo not drawn), the cell number change was 111%. In addition, under setting [1], the half-maximal activity concentration (AC50) was 29.1 µM [rising, single point]. The AC50 under setting [2] is 0.731 µM [rising, full curve].

Turning to `O=C1c2ccccc2C(=O)c2[nH]c(=O)[nH]c21`, the cell number change was -39.7%. In addition, the AC50 under setting [1] was 10.3 µM [falling, partial curve]. In addition, under setting [2], the AC50 was 13 µM [falling, partial curve].

For `CC#CC#Cc1cccc(=O)o1`, the cell number change is -9.74%. Moreover, under setting [2], the AC50 was 2.06 µM [falling, partial curve].

For the molecule `O=C(CN(C(=O)c1cccc([N+](=O)[O-])c1)C1CCCCC1)Nc1ccc(Cl)c([N+](=O)[O-])c1`, the cell number change came to 15.8%. The half-maximal activity concentration (AC50) under setting [2] is 3.26 µM [rising, full curve, poor fit].

Take `S=C(NCCC(c1ccccc1)c1ccccc1)Nc1ccc(Cl)cc1`: the cell number change is -19.8%. Further, the AC50 under setting [2] was 1.64 µM [falling, single point].

Take `CCN(CC(=O)Nc1c(F)cccc1F)C(=O)/C=C/c1ccc(OCC#N)c(OC)c1`: the cell number change stood at 2.55%. For the same molecule, under setting [1], the AC50 is 0.164 µM [rising, full curve, poor fit]. Also, the concentration at half-maximal activity (AC50) under setting [2] is 0.116 µM [rising, full curve, poor fit].

In the case of `CCc1cc(C(=O)N(CC)CC(=O)Nc2ccc(OC)cc2)sc1C`, the cell number change amounted to 28.5%. Moreover, the AC50 under setting [2] is 18.4 µM [falling, single point].

`COc1ccc2c(c1)c(C(=O)CN1CCN(C(=O)c3ccco3)CC1)c(C)n2C`: the cell number change is -14.7%. Also, the half-maximal activity concentration (AC50) under setting [2] is 4.61 µM [rising, full curve, poor fit].

With `Cc1cccc(NC(=O)CN2C(=O)NC(Cc3ccccc3)C2=O)c1` (stereo not drawn), the AC50 was 0.103 µM [rising, full curve, poor fit] under setting [1] and 0.206 µM [rising, full curve, poor fit] under setting [2].

In the case of `O=C(CN1CCN(Cc2cccc(Cl)c2)C1=O)NCC1CCCO1` (stereo not drawn), the cell number change is -60.2%. Also, the AC50 under setting [1] was 16.4 µM [falling, single point].

As to `CC(C)(C)NC(=S)N/N=C\c1ccc(-c2ccc([N+](=O)[O-])cc2)o1`, the cell number change is -1.42%.

As to `CCOc1cc(C(=O)NC(C)CCc2ccccc2)cc(OCC)c1OCC` (stereo not drawn), the cell number change came out at 2.81%. Also, the concentration at half-maximal activity (AC50) under setting [2] was 29.1 µM [falling, single point].

`O=C(Nc1cccc(S(=O)(=O)N2CCCC2)c1)c1cccc(OC(F)F)c1`: the cell number change turned out to be 39.4%. The half-maximal activity concentration (AC50) under setting [1] was 1.03 µM [rising, full curve].

Take `CC1CCN(C(=O)COc2cccc3c2CCN(C)C3=O)CC1`: the cell number change was -29%. The AC50 under setting [2] is 1.84 µM [falling, full curve].

Turning to `CCOC(=O)c1cnc(-n2nc(C)cc2C)nc1NCCc1ccccc1`, the cell number change was -69.1%. The AC50 under setting [1] is 29.1 µM [falling, single point]. The concentration at half-maximal activity (AC50) under setting [2] is 2.91 µM [rising, partial curve].

As to `CC(C)C(=O)O/N=C1\CCS(=O)(=O)c2sccc21`, the cell number change was 21.1%. Moreover, the AC50 under setting [2] was 23.1 µM [rising, single point].

Turning to `O=C(c1ccc(-n2cncn2)c([N+](=O)[O-])c1)N1CCN(S(=O)(=O)c2cccc(F)c2)CC1`, the AC50 under setting [1] is 6.51 µM [rising, single point] and the AC50 under setting [2] was 1.84 µM [falling, full curve, poor fit].

Regarding `Cc1ccc(C(=O)NNC(=O)C2CCN(Cc3ccc(Cl)c(Cl)c3)CC2)cc1`, the cell number change is -4.84%. For the same molecule, under setting [1], the AC50 is 0.259 µM [falling, partial curve, poor fit].

In the case of `CCn1c(CC(=O)Nc2ccccc2F)nnc1SCC(=O)Nc1nnc(C)s1`, the cell number change turned out to be 9.4%. Besides, the AC50 under setting [2] is 29.1 µM [rising, single point].

Take `Cc1ccc(N(C(=O)Nc2ccccc2)C2=NCCC2)cc1`: the cell number change stood at 20.1%. Further, under setting [1], the concentration at half-maximal activity (AC50) was 0.0058 µM [rising, full curve, poor fit]. Also, under setting [2], the half-maximal activity concentration (AC50) is 29.1 µM [rising, single point].

On to `COc1cccc(C2C(C(C)=O)=C(C)Nc3ncnn32)c1` (stereo not drawn), for which the cell number change came to 50%. Besides, under setting [1], the AC50 is 29.1 µM [rising, partial curve, poor fit]. The AC50 under setting [2] was 29.1 µM [falling, single point].

Turning to `CC1(C)C(c2ccccc2)=NC(c2ccc(F)cc2)N1O` (stereo not drawn), the cell number change turned out to be 183%. Also, the AC50 under setting [1] is 5.8 µM [rising, full curve]. Moreover, the half-maximal activity concentration (AC50) under setting [2] is 8.2 µM [rising, partial curve].

As for `CCOC(=O)N1CCN(c2cc(=O)n(-c3ccccc3C)c(=O)[nH]2)CC1`, the cell number change was 22.2%. Besides, under setting [1], the AC50 is 2.91 µM [falling, single point]. Moreover, the concentration at half-maximal activity (AC50) under setting [2] was 3.26 µM [falling, single point].

The record behind these values is PubChem BioAssay AID2685 (National Center for Advancing Translational Sciences (NCATS), 2010).
